Experiment [1] has as its target T1, STRIN, two-hybrid prey from pACT2 (human) (UniProt Q8WVD3).
T1 sequence (looked up): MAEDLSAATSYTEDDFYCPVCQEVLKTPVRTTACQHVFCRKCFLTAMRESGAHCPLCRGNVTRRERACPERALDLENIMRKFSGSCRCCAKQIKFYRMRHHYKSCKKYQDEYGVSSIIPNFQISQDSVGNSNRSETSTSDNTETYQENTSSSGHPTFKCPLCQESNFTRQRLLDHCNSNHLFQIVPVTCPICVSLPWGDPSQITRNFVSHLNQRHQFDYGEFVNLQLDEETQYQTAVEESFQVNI
Nature of the experiment: yeast two-hybrid (GAL4 system).

Chains of the proteins cited; added tags and fusions are not shown. Lines headed by an entry give the natural chain unless they say otherwise; changes in a name come on top.
UniProt Q68DV7: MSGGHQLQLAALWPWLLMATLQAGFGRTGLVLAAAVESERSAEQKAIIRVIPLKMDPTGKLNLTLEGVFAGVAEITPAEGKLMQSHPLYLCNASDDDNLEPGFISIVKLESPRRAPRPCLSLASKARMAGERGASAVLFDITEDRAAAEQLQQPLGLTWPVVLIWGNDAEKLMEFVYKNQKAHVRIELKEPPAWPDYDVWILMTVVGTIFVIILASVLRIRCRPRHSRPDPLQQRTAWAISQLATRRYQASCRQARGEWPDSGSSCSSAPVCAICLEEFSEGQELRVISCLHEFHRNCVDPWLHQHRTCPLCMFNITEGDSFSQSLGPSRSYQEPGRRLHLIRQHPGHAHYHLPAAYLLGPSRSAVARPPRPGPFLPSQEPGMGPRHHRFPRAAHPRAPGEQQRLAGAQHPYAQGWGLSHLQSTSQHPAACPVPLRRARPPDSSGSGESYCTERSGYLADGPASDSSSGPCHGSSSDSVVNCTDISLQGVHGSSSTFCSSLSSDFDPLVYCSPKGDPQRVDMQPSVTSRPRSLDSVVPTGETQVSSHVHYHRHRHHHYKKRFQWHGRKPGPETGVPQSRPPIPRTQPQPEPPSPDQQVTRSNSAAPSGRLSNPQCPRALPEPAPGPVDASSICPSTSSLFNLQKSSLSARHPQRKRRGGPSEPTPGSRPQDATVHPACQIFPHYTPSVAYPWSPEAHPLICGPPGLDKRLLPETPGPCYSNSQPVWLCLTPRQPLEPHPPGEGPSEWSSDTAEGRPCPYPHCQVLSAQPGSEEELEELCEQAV

Experiment [2] deals with T2, AIP1 (atrophin-1 interacting protein 1), C-terminal region, two-hybrid prey from pACT2 (human) (UniProt Q86UL8).
T2 sequence (looked up): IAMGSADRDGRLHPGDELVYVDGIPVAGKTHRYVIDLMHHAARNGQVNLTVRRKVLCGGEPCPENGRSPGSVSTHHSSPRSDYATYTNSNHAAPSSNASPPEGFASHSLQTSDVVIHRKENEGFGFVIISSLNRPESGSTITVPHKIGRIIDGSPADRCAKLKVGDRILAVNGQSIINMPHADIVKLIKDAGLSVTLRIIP
Nature of the experiment: yeast two-hybrid (GAL4 system).

Results are given in words; binding and its absence hold for the method and conditions named. Some results given as binding are weak or reduced against the parent protein; the word gives no strength.

The results in this text go back to US20050069930A1.

“RNF43 (Ring finger protein 43), entire coding sequence, two-hybrid bait from pAS2-1 (from UniProt Q68DV7 24-783)”: in experiment [1], the binding entry is “binds”.

B1: CXADRL1 (coxsackie and adenovirus receptor like 1), cytoplasmic region, two-hybrid bait from pAS2-1 (receptor)
chain: RSKNKEEEEEEIPNEIREDDLPPKCSSAKAFHTEISSSDNNTLTSSNAYNSRYWSNNPKVHRNTDSVSHFSDLGQSFSFHSGNANIPSIYANGTHLVPGQHKTLVVTANRGSSPQVMSRSNGSVSREPRPPHTHSYTISHATLERIGAVPVMVPAQSRAGSLV
In the case of B1, in experiment [2], the binding result is reported as “binds”.
